Several values for one entry are separate records, joined by “and”; a condition that tells them apart may be missing. Equal values may be shown once.
B1: Fibrinogen b: β chain of human fibrinogen, RA autoantigen; native or citrullinated by PAD2 or PAD4 (protein)
chain: MKRMVSWSFHKLKTMKHLLLLLLCVFLVKSQGVNDNEEGFFSARGHRPLDKKREEAPSLRPAPPPISGGGYRARPAKAAATQKKVERKAPDAGGCLHADPDLGVLCPTGCQLQEALLQQERPIRNSVDELNNNVEAVSQTSSSSFQYMYLLKDLWQKRQKQVKDNENVVNEYSSELEKHQLYIDETVNSNIPTNLRVLRSILENLRSKIQKLESDVSAQMEYCRTPCTVSCNIPVVSGKECEEIIRKGGETSEMYLIQPDSSVKPYRVYCDMNTENGGWTVIQNRQDGSVDFGRKWDPYKQGFGNVATNTDGKNYCGLPGEYWLGNDKISQLTRMGPTELLIEMEDWKGDKVKAHYGGFTVQNEANKYQISVNKYRGTAGNALMDGASQLMGENRTMTIHNGMFFSTYDRDNDGWLTSDPRKQCSKEDGGGWWYNRCHAANPNGRYYWGGQYTWDMAKHGTDDGVVWMNWKGSWYSMRKMSMKIRPFFPQQ
B2: hnRNP A2/B1: recombinant human hnRNP A2/B1 (RA33), RA autoantigen; native or citrullinated by PAD2 or PAD4 (protein)
chain: MEKTLETVPLERKKREKEQFRKLFIGGLSFETTEESLRNYYEQWGKLTDCVVMRDPASKRSRGFGFVTFSSMAEVDAAMAARPHSIDGRVVEPKRAVAREESGKPGAHVTVKKLFVGGIKEDTEEHHLRDYFEEYGKIDTIEIITDRQSGKKRGFGFVTFDDHDPVDKIVLQKYHTINGHNAEVRKALSRQEMQEVQSSRSGRGGNFGFGDSRGGGGNFGPGPGSNFRGGSDGYGSGRGFGDGYNGYGGGPGGGNFGGSPGYGGGRGGYGGGGPGYGNQGGGYGGGYDNYGGGNYGSGNYNDFGNYNQQPSNYGPMKSGNFGGSRNMGGPYGGGNYGPGGSGGSGGYGGRSRY
B3: Fibrinogen a: α chain of human fibrinogen (Cayman Chemical), RA autoantigen; native or citrullinated by PAD2 or PAD4 (protein)
chain: MFSMRIVCLVLSVVGTAWTADSGEGDFLAEGGGVRGPRVVERHQSACKDSDWPFCSDEDWNYKCPSGCRMKGLIDEVNQDFTNRINKLKNSLFEYQKNNKDSHSLTTNIMEILRGDFSSANNRDNTYNRVSEDLRSRIEVLKRKVIEKVQHIQLLQKNVRAQLVDMKRLEVDIDIKIRSCRGSCSRALAREVDLKDYEDQQKQLEQVIAKDLLPSRDRQHLPLIKMKPVPDLVPGNFKSQLQKVPPEWKALTDMPQMRMELERPGGNEITRGGSTSYGTGSETESPRNPSSAGSWNSGSSGPGSTGNRNPGSSGTGGTATWKPGSSGPGSTGSWNSGSSGTGSTGNQNPGSPRPGSTGTWNPGSSERGSAGHWTSESSVSGSTGQWHSESGSFRPDSPGSGNARPNNPDWGTFEEVSGNVSPGTRREYHTEKLVTSKGDKELRTGKEKVTSGSTTTTRRSCSKTVTKTVIGPDGHKEVTKEVVTSEDGSDCPEAMDLGTL
B4: Fibrinogen g: γ chain of human fibrinogen; not directly citrullinated (protein)
chain: MSWSLHPRNLILYFYALLFLSSTCVAYVATRDNCCILDERFGSYCPTTCGIADFLSTYQTKVDKDLQSLEDILHQVENKTSEVKQLIKAIQLTYNPDESSKPNMIDAATLKSRKMLEEIMKYEASILTHDSSIRYLQEIYNSNNQKIVNLKEKVAQLEAQCQEPCKDTVQIHDITGKDCQDIANKGAKQSGLYFIKPLKANQQFLVYCEIDGSGNGWTVFQKRLDGSVDFKKNWIQYKEGFGHLSPTGTTEFWLGNEKIHLISTQSAIPYALRVELEDWNGRTSTADYAMFKVGPEADKYRLTYAYFAGGDAGDAFDGFDFGDDPSDKFFTSHNGMQFSTWDNDNDKFEGNCAEQDGSGWWMNKCHAGHLNGVYYQGGTYSKASTPNGYDNGIIWATWKTRWYSMKKTTMKIIPFNRLTIGEGQQHHLGGAKQVRPEHPAETEYDSLYPEDDL

System: cathepsins B, S, and H
Test: Proteolytic mapping (ProtMap) of native and citrullinated autoantigens by cathepsins B, S, and H with LFQ-MS
Type: biochemical, human
Details: Fig. 3e; native vs PAD2-citrullinated protein
Protocol: Prior to proteolytic mapping, citrullinated antigens were generated by incubating recombinant human antigens—hnRNP A2/B1 (RA33; custom-made as previously described by in ref. [24]), fibrinogen (Cayman Chemical), and vimentin (PeproTech)—with Sf9-purified peptidylarginine deiminase 2 or 4 (PAD2 or PAD4; Inova) at a 17:1 mass ratio in citrullination buffer (100 mM Tris, 1 mM DTT, 5 mM CaCl2, pH 7.5) for 4 h at 37 °C. Native antigens were diluted in the same buffer without PAD enzymes and without incubation at 37 °C to prevent degradation. Citrullination was confirmed by anti-peptidylcitrulline (clone F95, EMD Millipore) immunoblotting. Native and citrullinated antigen pools were split into four 15 µg replicates per condition before digestion (except hnRNP A2/B1, which was digested in double-volume replicates of three and later split into two each, total n = 6, prior to MS) by cathepsins B, S, and H (Millipore Sigma). Digestions were incubated in digestion buffer (citrate phosphate buffer, 4 mM DTT, 1 mM EDTA, pH 5.0) for 4 h at 37 °C. Fibrinogen and vimentin were digested at a 60:1 antigen:cathepsin mass ratio per cathepsin, and hnRNP A2/B1 was digested at a 150:1 antigen:cathepsin mass ratio per cathepsin to achieve full digestion of the protein. Digestion was confirmed by Coomassie Blue staining, and the remaining samples were centrifuged through a 10-kDa-spin filter (Microcon, Millipore) to remove undigested protein fragments. The resulting peptide repertoires were then analyzed by LFQ–MS.
Prior to MS, the samples were reduced and alkylated by incubating in 10 mM Tris (2-Carboxyethyl) phosphine hydrochloride (TCEP, v/v) and 50 mM chloroacetamide (CAA, v/v) for 1 h at room temperature. The samples were then desalted using C18 StageTips (3 M Empore) after acidifying with 1% trifluoroacetic acid (TFA). The peptide solution was vacuum-dried and stored at ‒80 °C. The peptide samples were analyzed on an Orbitrap Fusion Lumos Tribrid mass spectrometer interfaced with an Ultimate 3000 RS Autosampler nanoflow liquid chromatography system (Thermo Scientific). The dried peptides were reconstituted in 15 µL of 0.5% formic acid (FA) and then loaded onto a trap column (Acclaim™ PepMap™ 100 LC C18, 5 μm, 100 μm × 2 cm, Thermo Scientific) at a flow rate of 8 μL/min. Peptides were separated on an analytical column (Easy-Spray™ PepMap™ RSLC C18, 2 μm, 75 μm × 50 cm, Thermo Scientific) at a flow rate of 0.3 μL/min using a linear gradient with mobile phases consisting of 0.1% FA in water and in 95% acetonitrile (ACN) for 120 min. The mass spectrometer was operated in data-dependent acquisition (DDA) mode. The MS1 (precursor ions) scan range for a full survey scan was acquired from 300 to 1800 m/z in the top speed setting with a resolution of 120,000 at an m/z of 200. The AGC target for MS1 was set as 1 × 10^6, and the maximum injection time was 100 milliseconds. The most intense ions with charge states of 2–5 were isolated in a 3-s cycle, fragmented using higher-energy collisional dissociation (HCD) fragmentation with 32% normalized collision energy, and detected at a mass resolution of 50,000 at an m/z of 200. The AGC target for MS/MS (fragments) was set as 5 × 10^4, and the ion filling time was 100 milliseconds. The precursor isolation window was set to 1.6 m/z with a 0.4 m/z offset. The dynamic exclusion was set to 30 s, and singly charged ions were rejected. Internal calibration was carried out using the lock mass option (m/z 445.1200025) from ambient air[59]–[61].
Proteome Discoverer (version 2.4.1.15, Thermo Scientific) was used for the identification and quantitation of proteins. During MS/MS preprocessing, the top 10 peaks in each window of 100 m/z were selected for database search. […]

| Molecule | Change Score - PAD2 |
| --- | --- |
| B1 | 39.0323 |
| B2 | 58.6466 |

Same assay, conditions: Fig. 3e; native vs PAD4-citrullinated protein

| Molecule | Change Score - PAD4 |
| --- | --- |
| B1 | 14.5631 |
| B2 | 42.7938 |

Same assay, conditions: PAD2-citrullinated vs native

| Molecule | changed peptides (%) Cr (created) | changed peptides (%) De (destroyed) | changed residues (%) |
| --- | --- | --- | --- |
| B3 | 35.80% | 20.46% | 24.36% |
| B1 | 29.03% | 10.00% | 31.16% |
| B4 | 33.58% | 0.00% | 26.27% |
| B2 | 48.62% | 10.03% | 31.16% |

Same assay, conditions: PAD2-citrullinated vs native; cathepsins BSH, pH 5.0, 4 h, 37 °C

| Molecule | # changed residues |
| --- | --- |
| B3 | 211.00 |
| B1 | 153.00 |
| B4 | 122.00 |
| B2 | 110.00 |

Same assay, conditions: PAD2-citrullinated vs native; q <= 0.05 and >= twofold

| Molecule | # changed peptides Cr (created) | # changed peptides De (destroyed) |
| --- | --- | --- |
| B3 | 203 | 116 |
| B1 | 90 | 31 |
| B4 | 89 | 0 |
| B2 | 194 | 40 |

Same assay, conditions: PAD4-citrullinated vs native

| Molecule | changed peptides (%) Cr (created) | changed peptides (%) De (destroyed) | changed residues (%) |
| --- | --- | --- | --- |
| B3 | 18.10% | 9.68% | 22.17% |
| B1 | 7.44% | 7.12% | 9.37% |
| B4 | 0.00% | 0.00% | 4.86% |
| B2 | 24.61% | 18.18% | 24.93% |

Same assay, conditions: PAD4-citrullinated vs native; cathepsins BSH, pH 5.0, 4 h, 37 °C

| Molecule | # changed residues |
| --- | --- |
| B3 | 192.00 |
| B1 | 46.00 |
| B4 | 22.00 |
| B2 | 88.00 |

Same assay, conditions: PAD4-citrullinated vs native; q <= 0.05 and >= twofold

| Molecule | # changed peptides Cr (created) | # changed peptides De (destroyed) |
| --- | --- | --- |
| B3 | 101 | 54 |
| B1 | 23 | 22 |
| B4 | 0 | 0 |
| B2 | 111 | 82 |

Same assay, conditions: percentage of all ProtMap peptides significantly changed between native and PAD2-citrullinated samples

| Molecule | PAD2 change score (antigen processing change score) |
| --- | --- |
| B3 | 56.26 |
| B4 | 33.58 |
| B2 | 58.65 and 58.6466 |

Same assay, conditions: percentage of all ProtMap peptides significantly changed between native and PAD2-citrullinated samples; listed as Fibrinogen β

| Molecule | PAD2 change score (antigen processing change score) |
| --- | --- |
| B1 | 39.03 and 39.0323 |

Same assay, conditions: percentage of all ProtMap peptides significantly changed between native and PAD4-citrullinated samples

| Molecule | PAD4 change score (antigen processing change score) |
| --- | --- |
| B3 | 27.78 |
| B4 | 0.00 |
| B2 | 42.79 and 42.7938 |

Same assay, conditions: percentage of all ProtMap peptides significantly changed between native and PAD4-citrullinated samples; listed as Fibrinogen β

| Molecule | PAD4 change score (antigen processing change score) |
| --- | --- |
| B1 | 14.56 and 14.5631 |

Same assay, conditions: percentage of all ProtMap peptides significantly changed between native and PAD4-citrullinated samples; listed as Fibrinogen γ

| Molecule | PAD4 change score (antigen processing change score) |
| --- | --- |
| B4 | 0 |

Same assay, conditions: range over PAD2 and PAD4 conditions

| Molecule | share of the sequence significantly changed in abundance by citrullination |
| --- | --- |
| B4 | 5–26% |

System: recombinant human PAD2
Test: Citrullination site mapping by mass spectrometry after PAD2 citrullination
Type: biochemical
Details: PAD2 condition

| Molecule | # citrulline residues |
| --- | --- |
| B3 | 12 |
| B1 | 5 |
| B4 | 0 |
| B2 | 8 |

Same assay, conditions: PAD2 condition; share of sequence citrullinated

| Molecule | citrullination (%) |
| --- | --- |
| B3 | 1.39% |
| B1 | 1.02% |
| B4 | 0.00% |
| B2 | 2.27% |

System: recombinant human PAD4
Test: Citrullination site mapping by mass spectrometry after PAD4 citrullination
Type: biochemical
Details: PAD4 condition

| Molecule | # citrulline residues |
| --- | --- |
| B3 | 12 |
| B1 | 4 |
| B4 | 0 |
| B2 | 5 |

Same assay, conditions: PAD4 condition; share of sequence citrullinated

| Molecule | citrullination (%) |
| --- | --- |
| B3 | 1.39% |
| B1 | 0.81% |
| B4 | 0.00% |
| B2 | 1.42% |

Reference: paper PMC9958131 (Nature Communications, 2023)
